Laboratory results from PMC12536466.
Results are given in words; binding and its absence hold for the method and conditions named. In cells and extracts the contact can be indirect. Some binding calls cover weakened binding; strength is not graded here.

By UniProt entry, the sequences of proteins in these tests, tags left out.
UniProt Q00899: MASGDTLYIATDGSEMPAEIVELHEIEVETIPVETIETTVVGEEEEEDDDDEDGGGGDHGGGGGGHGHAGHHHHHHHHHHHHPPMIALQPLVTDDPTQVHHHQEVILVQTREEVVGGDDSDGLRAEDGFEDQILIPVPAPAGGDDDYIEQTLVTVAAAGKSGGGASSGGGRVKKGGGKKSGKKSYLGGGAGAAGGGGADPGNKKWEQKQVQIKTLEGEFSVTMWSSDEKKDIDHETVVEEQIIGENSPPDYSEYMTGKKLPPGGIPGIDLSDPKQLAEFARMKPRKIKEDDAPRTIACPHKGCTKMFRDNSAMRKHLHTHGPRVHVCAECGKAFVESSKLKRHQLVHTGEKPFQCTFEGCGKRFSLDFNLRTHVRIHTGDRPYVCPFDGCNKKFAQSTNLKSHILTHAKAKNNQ
UniProt Q8CFI0: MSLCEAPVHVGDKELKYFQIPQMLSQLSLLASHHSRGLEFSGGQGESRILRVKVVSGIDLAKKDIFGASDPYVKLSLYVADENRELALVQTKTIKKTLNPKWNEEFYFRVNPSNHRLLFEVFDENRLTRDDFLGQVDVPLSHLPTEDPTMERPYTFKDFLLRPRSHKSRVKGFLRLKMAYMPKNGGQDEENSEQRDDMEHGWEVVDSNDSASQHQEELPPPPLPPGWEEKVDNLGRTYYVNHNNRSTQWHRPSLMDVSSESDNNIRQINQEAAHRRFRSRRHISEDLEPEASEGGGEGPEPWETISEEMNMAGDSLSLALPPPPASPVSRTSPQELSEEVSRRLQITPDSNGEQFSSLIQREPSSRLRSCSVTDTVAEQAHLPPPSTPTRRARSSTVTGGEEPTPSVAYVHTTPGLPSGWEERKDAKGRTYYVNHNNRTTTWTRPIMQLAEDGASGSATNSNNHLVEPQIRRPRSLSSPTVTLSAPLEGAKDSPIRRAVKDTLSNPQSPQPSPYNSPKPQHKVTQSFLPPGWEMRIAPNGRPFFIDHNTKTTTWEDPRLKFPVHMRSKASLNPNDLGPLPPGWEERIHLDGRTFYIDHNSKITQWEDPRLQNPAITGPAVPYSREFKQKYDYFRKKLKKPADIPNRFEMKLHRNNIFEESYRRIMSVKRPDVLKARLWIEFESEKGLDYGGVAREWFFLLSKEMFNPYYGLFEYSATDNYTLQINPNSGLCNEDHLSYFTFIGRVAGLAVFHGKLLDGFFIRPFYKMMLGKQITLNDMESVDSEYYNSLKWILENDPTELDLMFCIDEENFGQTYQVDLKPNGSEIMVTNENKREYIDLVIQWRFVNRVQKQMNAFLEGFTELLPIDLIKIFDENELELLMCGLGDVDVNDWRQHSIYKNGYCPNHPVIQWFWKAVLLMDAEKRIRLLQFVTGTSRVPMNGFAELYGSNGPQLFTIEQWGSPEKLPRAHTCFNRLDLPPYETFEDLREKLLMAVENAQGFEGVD

Target: YY1 (mouse (endogenous in AML12)) (UniProt Q00899)
Assay: co-IP; total lysate of oe-NEDD4L AML12 cells; Protein G agarose bound with target protein antibody (anti-YY1 or anti-NEDD4L) or control IgG, overnight at 4°C; eluted in SDS-PAGE loading buffer, western blot

binding: binds
Substance: E3 ubiquitin ligase NEDD4L (from UniProt Q8CFI0 1-1004) (enzyme)
